{
  "sequences": {"note": "Protein sequences, listed by entry. Tags and fused reporters are not part of them. Lines headed by an entry give the natural chain unless they say otherwise; changes in a name come on top.", "UniProt A0A2I4H1P2": "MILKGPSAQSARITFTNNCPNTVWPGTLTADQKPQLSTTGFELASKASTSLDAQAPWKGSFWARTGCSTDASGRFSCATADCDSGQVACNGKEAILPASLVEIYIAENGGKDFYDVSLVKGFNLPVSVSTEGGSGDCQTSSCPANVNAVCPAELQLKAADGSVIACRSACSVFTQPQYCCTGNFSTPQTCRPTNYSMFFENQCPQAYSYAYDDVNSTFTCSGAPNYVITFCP"},
  "source": "paper PMC10541558",
  "biological_target": "JrCCR4-GST recombinant protein (walnut (Juglans regia L.))",
  "test": "pull-down; His-tagged and GST-tagged proteins mixed at a ratio of 1:1, purified with Glutathione-Sepharose Resin, Western blotting; both purified",
  "note": "Results are given in words; binding and its absence hold for the method and conditions named. Binding can be weak; no strength is given.",
  "data": [
    {"substance": "JrTLP1b with HIS tag, recombinant protein (from UniProt A0A2I4H1P2)", "values": [
      {"measurement": "binding", "result": "binds"}
    ]}
  ]
}
